These are yes or no findings as the source states them, for the method shown. Binding seen in cells or lysates may run through a third protein. Where a sequence is shown, tags or fusion partners need not be part of it.
Molecular target: T1, Calcium Sensing Receptor, C-terminal Citrine fusion (UniProt P41180)
T1 sequence: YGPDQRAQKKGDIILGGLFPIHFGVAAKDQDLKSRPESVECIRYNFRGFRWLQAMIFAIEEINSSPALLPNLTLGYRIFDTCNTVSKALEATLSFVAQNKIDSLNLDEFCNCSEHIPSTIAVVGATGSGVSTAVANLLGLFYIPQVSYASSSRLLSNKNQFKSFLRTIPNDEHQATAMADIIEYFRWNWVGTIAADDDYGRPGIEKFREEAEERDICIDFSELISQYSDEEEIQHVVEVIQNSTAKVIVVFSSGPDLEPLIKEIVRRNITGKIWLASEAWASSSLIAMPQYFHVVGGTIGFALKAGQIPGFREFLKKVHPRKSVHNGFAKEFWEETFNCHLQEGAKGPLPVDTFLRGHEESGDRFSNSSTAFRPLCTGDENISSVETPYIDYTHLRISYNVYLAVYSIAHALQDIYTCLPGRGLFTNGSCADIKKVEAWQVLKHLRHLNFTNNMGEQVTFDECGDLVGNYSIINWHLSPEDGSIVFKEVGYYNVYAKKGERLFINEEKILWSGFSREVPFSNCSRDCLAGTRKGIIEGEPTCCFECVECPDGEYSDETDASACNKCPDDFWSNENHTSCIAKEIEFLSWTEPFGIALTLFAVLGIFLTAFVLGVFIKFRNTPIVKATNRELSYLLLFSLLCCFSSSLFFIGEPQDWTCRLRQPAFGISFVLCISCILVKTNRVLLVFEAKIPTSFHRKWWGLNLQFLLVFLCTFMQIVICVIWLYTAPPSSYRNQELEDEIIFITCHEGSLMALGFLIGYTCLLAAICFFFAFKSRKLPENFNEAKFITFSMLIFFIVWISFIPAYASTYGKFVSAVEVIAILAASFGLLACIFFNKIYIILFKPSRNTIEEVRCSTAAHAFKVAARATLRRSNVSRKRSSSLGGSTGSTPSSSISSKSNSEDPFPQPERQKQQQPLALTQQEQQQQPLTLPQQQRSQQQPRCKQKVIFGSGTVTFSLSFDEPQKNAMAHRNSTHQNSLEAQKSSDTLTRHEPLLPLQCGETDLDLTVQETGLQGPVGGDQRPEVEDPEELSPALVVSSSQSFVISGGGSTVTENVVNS
Assay: FRET or BRET; sensitized-emission FRET (NFRET, PixFRET) and FRET-based stoichiometry in cell-surface regions of interest (50-pixel dots) of fixed COS-7 cells co-transfected with CaSR-Citrine (acceptor) and RAMP-Cerulean (donor); confocal microscopy at room temperature; NFRET as percent of a Cerulean-linker-Citrine positive control; negative control Citrine alone + RAMP-Cerulean

Chains of the proteins cited; added tags and fusions are not shown. Residues count along the entry.
UniProt O60895, residues 43-175: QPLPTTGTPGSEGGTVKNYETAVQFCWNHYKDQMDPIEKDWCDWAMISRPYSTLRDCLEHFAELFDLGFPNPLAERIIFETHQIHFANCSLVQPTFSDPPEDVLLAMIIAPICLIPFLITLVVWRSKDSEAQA

Receptor Activity Modifying Protein 2, C-terminal Cerulean fusion (from UniProt O60895 43-175)
binding: no binding

Reference: paper PMC3890319, “Role of Receptor Activity Modifying Protein 1 in Function of the Calcium Sensing Receptor in the Human TT Thyroid Carcinoma Cell Line” (PLoS ONE, 2014)
